Results are given in words; binding and its absence hold for the method and conditions named. Binding seen in cells or lysates may run through a third protein. These calls come from enrichment with a bait or labelling near it, and not all partners need be listed.
Molecular target: SOCS3-Myc (suppressor of cytokine signaling 3, Myc-tagged) (UniProt O35718)
Assay: affinity purification with mass spectrometry; anti-Myc (9E10) IP with Protein-G agarose from lysates of SOCS3-Myc transfected OP9-DL1 cells (120 mM NaCl, 50 mM Tris pH 8.0, 0.5% NP-40), isotype antibody as control; on-bead trypsin digestion, LC-MS/MS; three replicates

Sequences of proteins named here, by UniProt entry; tags and fusion partners are left off.
UniProt O35718: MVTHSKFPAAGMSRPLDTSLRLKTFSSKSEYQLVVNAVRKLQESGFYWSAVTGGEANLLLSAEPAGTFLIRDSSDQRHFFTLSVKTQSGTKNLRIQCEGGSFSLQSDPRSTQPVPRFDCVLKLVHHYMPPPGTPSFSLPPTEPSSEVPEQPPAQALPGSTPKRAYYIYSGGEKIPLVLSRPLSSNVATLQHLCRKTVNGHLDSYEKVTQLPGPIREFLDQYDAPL

binding: binds
B1: E3 ubiquitin ligase TRIM21 (protein, UniProt Q62191 1-470)
chain: MSPSTTSKMSLEKMWEEVTCSICLDPMVEPMSIECGHCFCKECIFEVGKNGGSSCPECRQQFLLRNLRPNRHIANMVENLKQIAQNTKKSTQETHCMKHGEKLHLFCEEDGQALCWVCAQSGKHRDHTRVPIEEAAKVYQEKIHVVLEKLRKGKELAEKMEMDLTMQRTDWKRNIDTQKSRIHAEFALQNSLLAQEEQRQLQRLEKDQREYLRLLGKKEAELAEKNQALQELISELERRIRGSELELLQEVRIILERSGSWNLDTLDIDAPDLTSTCPVPGRKKMLRTCWVHITLDRNTANSWLIISKDRRQVRMGDTHQNVSDNKERFSNYPMVLGAQRFSSGKMYWEVDVTQKEAWDLGVCRDSVQRKGQFSLSPENGFWTIWLWQDSYEAGTSPQTTLHIQVPPCQIGIFVDYEAGVVSFYNITDHGSLIYTFSECVFAGPLRPFFNVGFNYSGGNAAPLKLCPLKM
